Residue numbers refer to the chain shown, from its start. Only a part is listed here, and it is no random draw. Calls are pooled over several reports, among them a noisy single-well screen. Some of the results follow.
Assays:
Conditions in all cases: stereoisomer not certain
O2T11 = system: T1, O2T11
T1 sequence (whole entry): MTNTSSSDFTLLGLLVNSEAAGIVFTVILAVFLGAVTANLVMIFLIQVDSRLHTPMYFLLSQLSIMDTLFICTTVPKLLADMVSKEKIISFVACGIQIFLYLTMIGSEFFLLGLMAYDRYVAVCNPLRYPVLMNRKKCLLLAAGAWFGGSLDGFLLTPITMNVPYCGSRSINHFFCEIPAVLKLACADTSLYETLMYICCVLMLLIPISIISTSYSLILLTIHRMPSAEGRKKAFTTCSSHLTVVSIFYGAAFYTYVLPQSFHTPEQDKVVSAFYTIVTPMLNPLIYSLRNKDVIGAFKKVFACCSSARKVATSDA
Outline: (§1)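 Assay methods differ from source to source, frequently being transient luciferase assays in mammalian cell lines. For each receptor–molecule pair, the label responsive (active) applies when the original authors judged the measured signal statistically different from baseline, and non-responsive (inactive) applies otherwise.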

Chains of the proteins cited; added tags and fusions are not shown. Chains listed by the source or under a name are the forms on record and can include a tag or linker.
O4C46, as listed by the source: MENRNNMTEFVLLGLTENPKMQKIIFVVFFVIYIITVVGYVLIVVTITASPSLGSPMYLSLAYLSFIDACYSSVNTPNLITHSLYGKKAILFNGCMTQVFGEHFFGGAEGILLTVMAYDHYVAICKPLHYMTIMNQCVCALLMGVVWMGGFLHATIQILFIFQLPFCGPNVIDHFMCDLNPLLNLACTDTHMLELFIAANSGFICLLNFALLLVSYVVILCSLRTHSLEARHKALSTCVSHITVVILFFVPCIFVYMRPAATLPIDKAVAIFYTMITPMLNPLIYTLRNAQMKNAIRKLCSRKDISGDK
O4A15, as listed by the source: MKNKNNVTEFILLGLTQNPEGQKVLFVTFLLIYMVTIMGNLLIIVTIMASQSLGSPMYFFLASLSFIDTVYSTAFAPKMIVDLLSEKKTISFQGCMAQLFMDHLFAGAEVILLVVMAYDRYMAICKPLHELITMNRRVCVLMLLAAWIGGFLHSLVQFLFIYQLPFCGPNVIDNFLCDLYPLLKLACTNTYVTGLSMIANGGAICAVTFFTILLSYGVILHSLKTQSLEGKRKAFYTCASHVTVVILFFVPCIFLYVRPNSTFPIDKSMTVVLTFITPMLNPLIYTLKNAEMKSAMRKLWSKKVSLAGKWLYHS
O4F17, as listed by the source: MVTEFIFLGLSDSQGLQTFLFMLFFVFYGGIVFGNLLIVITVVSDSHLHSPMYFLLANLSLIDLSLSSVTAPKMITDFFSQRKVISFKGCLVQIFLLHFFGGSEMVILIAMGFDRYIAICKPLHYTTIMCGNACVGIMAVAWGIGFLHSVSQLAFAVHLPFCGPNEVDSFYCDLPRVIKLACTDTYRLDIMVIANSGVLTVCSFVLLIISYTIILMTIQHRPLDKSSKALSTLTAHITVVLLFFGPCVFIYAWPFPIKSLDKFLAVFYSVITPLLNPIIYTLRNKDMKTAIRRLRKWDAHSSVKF

O2T29 [1] = system: T2, O2T29
T2 sequence (whole entry): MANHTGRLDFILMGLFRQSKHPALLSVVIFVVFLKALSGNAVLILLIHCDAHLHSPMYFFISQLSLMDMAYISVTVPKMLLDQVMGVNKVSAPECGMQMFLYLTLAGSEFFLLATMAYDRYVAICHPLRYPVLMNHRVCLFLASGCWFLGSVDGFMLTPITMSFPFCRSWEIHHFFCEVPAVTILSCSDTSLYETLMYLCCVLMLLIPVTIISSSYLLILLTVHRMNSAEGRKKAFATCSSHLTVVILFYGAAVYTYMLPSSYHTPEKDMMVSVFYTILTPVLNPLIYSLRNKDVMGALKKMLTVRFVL
Outline: as §1

O2T29 [2] = system: T3, O2T29; remark: listed apart in the source
T3 sequence (whole entry): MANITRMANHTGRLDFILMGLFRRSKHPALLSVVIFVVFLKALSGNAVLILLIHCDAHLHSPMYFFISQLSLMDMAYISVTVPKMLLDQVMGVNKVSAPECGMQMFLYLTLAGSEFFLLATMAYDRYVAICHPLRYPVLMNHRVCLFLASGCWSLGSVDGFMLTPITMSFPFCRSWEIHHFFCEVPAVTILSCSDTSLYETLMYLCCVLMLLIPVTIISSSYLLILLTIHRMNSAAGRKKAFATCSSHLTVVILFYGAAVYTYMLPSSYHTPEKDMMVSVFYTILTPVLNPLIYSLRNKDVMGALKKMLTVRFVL
Outline: as §1

O2T33 = system: T4, O2T33
T4 sequence (whole entry): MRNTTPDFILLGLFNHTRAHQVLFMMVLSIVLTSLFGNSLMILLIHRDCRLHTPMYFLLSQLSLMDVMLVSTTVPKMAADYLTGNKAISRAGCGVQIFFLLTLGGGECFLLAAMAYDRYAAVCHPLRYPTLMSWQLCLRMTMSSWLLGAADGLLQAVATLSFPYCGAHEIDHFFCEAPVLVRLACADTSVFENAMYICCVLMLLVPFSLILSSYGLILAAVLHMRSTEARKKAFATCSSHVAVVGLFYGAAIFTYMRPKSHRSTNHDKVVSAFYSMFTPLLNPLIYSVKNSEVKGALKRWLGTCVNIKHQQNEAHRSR
Outline: as §1

O2T34 = system: T5, O2T34
T5 sequence (whole entry): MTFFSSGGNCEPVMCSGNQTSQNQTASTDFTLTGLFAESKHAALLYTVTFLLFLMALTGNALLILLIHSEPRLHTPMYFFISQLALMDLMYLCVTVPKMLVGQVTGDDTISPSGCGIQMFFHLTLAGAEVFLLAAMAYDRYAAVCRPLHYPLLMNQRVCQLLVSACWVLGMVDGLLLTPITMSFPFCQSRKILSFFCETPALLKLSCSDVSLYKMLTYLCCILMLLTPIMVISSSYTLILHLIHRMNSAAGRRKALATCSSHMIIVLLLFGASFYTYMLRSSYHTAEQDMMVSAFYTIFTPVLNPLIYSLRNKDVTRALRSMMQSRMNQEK
Outline: as §1

O2T35 = system: T6, O2T35
T6 sequence (whole entry): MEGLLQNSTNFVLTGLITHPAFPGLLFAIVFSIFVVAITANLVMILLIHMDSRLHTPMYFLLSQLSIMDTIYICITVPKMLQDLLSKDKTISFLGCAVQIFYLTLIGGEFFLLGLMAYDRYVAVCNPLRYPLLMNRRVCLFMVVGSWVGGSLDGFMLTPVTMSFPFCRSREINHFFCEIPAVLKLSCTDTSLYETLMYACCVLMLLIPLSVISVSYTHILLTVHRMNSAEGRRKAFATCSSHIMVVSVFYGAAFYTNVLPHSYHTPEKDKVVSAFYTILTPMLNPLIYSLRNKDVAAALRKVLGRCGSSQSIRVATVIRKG
Outline: as §1

O4A15 = system: O4A15
Outline: as §1

O4A47 = system: T7, O4A47
T7 sequence (whole entry): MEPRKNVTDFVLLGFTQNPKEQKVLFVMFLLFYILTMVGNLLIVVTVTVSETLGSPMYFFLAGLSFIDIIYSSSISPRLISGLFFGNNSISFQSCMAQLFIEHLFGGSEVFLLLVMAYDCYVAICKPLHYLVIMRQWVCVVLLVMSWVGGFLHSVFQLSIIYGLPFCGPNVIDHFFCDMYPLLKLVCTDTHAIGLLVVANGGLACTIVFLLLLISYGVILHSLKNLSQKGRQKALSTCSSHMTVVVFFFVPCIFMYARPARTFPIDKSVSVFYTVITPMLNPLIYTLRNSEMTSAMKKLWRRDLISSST
Outline: as §1

O4C46 = system: O4C46
Outline: as §1

O4F17 [3] = system: T8, O4F17
T8 sequence (whole entry): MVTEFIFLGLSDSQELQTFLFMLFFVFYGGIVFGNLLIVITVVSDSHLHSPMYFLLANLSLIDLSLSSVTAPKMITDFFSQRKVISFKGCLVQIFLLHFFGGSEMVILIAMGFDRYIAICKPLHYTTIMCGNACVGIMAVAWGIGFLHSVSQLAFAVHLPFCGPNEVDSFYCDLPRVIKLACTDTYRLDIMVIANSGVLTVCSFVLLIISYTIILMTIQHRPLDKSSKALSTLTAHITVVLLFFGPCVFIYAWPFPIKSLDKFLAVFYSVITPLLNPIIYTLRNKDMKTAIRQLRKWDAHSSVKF
Outline: as §1

O4F17 [4] = system: T9, O4F17; remark: listed apart in the source
T9 sequence (whole entry): T8 sequence (whole entry) with E15G, Q293R
Outline: as §1

O4F21 = system: T10, O4F21
T10 sequence (whole entry): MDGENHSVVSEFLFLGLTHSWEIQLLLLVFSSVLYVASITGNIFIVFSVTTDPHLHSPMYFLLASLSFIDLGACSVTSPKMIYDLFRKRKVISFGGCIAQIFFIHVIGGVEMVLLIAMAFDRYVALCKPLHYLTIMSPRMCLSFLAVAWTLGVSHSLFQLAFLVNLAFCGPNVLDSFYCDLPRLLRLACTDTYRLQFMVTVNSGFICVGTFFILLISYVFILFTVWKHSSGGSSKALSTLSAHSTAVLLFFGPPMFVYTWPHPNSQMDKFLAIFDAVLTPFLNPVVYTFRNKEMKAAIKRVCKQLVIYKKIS
Outline: as §1

O51A4 = system: T11, O51A4
T11 sequence (whole entry): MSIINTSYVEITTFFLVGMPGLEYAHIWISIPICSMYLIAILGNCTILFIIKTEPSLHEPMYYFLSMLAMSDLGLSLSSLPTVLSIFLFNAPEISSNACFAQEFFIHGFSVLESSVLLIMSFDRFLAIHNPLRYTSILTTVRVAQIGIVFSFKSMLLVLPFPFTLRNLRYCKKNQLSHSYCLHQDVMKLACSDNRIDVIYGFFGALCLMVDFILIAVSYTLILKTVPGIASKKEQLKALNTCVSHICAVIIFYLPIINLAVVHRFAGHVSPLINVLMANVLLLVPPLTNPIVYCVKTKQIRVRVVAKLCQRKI
Outline: as §1

O51B4 = system: T12, O51B4
T12 sequence (whole entry): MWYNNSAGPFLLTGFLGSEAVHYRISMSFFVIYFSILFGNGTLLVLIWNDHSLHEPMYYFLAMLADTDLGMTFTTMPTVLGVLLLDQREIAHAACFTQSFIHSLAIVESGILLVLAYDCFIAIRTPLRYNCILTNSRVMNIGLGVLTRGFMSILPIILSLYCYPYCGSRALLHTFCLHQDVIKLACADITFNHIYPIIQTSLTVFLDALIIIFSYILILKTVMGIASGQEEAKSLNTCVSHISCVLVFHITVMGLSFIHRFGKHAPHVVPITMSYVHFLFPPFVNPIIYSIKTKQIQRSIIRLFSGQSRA
Outline: as §1

O51B5 = system: T13, O51B5
T13 sequence (whole entry): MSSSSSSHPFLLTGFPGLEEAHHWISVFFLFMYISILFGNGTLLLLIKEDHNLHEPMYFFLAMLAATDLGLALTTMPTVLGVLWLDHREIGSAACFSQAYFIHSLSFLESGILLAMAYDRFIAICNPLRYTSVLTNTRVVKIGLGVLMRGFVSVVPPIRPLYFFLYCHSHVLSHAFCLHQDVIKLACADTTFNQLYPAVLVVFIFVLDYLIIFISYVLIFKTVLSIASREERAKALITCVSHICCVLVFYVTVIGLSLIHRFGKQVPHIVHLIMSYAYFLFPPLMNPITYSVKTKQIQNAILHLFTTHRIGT
Outline: as §1

O51B6 = system: T14, O51B6
T14 sequence (whole entry): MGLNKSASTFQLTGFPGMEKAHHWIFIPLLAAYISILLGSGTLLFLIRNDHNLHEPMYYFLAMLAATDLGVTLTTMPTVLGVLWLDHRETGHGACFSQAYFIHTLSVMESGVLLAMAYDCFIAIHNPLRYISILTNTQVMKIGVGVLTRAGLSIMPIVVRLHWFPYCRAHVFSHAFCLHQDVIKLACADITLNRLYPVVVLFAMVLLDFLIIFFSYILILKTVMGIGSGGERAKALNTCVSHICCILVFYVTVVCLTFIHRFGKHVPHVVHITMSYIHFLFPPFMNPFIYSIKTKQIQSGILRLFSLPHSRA
Outline: as §1

O51E1 = system: T15, O51E1
T15 sequence (whole entry): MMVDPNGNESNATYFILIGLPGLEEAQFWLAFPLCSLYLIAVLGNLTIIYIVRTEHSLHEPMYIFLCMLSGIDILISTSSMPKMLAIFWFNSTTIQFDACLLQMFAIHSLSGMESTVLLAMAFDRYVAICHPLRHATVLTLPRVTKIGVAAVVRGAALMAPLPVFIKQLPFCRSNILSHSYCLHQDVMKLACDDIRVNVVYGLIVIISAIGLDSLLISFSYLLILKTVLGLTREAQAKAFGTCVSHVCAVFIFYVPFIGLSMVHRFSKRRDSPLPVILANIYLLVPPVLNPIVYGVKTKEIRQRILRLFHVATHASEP
Outline: as §1

O51F1 = system: T16, O51F1
T16 sequence (whole entry): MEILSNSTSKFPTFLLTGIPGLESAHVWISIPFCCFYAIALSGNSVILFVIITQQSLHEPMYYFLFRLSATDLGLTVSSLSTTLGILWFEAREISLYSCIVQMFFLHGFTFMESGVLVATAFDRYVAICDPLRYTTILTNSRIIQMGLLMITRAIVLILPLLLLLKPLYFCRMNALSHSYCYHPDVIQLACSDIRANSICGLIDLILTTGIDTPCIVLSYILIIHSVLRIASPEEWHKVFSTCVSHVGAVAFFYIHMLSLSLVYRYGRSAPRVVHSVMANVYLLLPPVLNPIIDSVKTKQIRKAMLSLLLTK
Outline: as §1

O51F2 = system: T17, O51F2
T17 sequence (whole entry): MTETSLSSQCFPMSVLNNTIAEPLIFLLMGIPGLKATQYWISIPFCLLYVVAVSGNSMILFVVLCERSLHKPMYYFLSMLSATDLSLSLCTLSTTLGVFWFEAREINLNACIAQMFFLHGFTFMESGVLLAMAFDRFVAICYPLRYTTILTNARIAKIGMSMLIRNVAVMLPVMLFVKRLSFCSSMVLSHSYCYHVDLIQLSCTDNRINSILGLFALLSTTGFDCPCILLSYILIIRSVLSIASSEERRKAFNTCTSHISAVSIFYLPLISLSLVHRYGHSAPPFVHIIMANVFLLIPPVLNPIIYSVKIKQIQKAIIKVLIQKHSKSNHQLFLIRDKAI
Outline: as §1

SMILES | odorant receptor agonist call (O2T11) | odorant receptor agonist call (O2T29 [1]) | odorant receptor agonist call (O2T29 [2]) | odorant receptor agonist call (O2T33) | odorant receptor agonist call (O2T34) | odorant receptor agonist call (O2T35) | odorant receptor agonist call (O4A15) | odorant receptor agonist call (O4A47) | odorant receptor agonist call (O4C46) | odorant receptor agonist call (O4F17 [3]) | odorant receptor agonist call (O4F17 [4]) | odorant receptor agonist call (O4F21) | odorant receptor agonist call (O51A4) | odorant receptor agonist call (O51B4) | odorant receptor agonist call (O51B5) | odorant receptor agonist call (O51B6) | odorant receptor agonist call (O51E1) | odorant receptor agonist call (O51F1) | odorant receptor agonist call (O51F2)
CC(C)(C)c1ccc(CCC=O)cc1 | inactive | inactive | inactive | inactive | inactive | inactive | inactive | inactive | inactive | inactive | active | inactive | inactive | inactive | inactive | active | inactive | inactive | inactive
CC12C=CCC1C1CCC3=CC(=O)CCC3(C)C1CC2 (configuration not stated) | inactive | inactive | inactive | inactive | inactive | active | inactive | inactive | inactive | inactive | inactive | inactive | inactive | inactive | inactive | inactive | inactive | inactive | inactive
CCCCCCCCOC(C)=O | inactive | inactive | inactive | inactive | inactive | inactive | inactive | inactive | inactive | inactive | inactive | inactive | inactive | inactive | inactive | inactive | inactive | inactive | inactive

From the M2OR odorant receptor database
